From patent US20040063626A1 (priority 2000, published 2004)
At least one compound was matched to its structure with a doubt left. Numbered stars: 1 amine (or outer) side, 2 acyl side, 3 side chain; on linkers, the order of the positions; unused ones are H or OH. Square brackets hold non-standard residues; d marks the D form. Peptide text beside a SMILES is read from it. AlaΨ(CSNH)dAla = C[C@H](N[*:1])C(=S)N[C@H](C)C(=O)[*:2]; MeBmt = C/C=C/C[C@@H](C)[C@@H](O)[C@H](NC)C(=O)O; NMeL = CN[C@@H](CC(C)C)C(=O)O; NMeV = CN[C@H](C(=O)O)C(C)C; Abu = CC[C@H](N)C(=O)O; Sar = CNCC(=O)O

How the values were obtained:
C57BL/6 mice = assay: Hair regrowth test on shaved backs of C57BL/6 mice; format: in vivo; details: 100 μl (0.1% w/v) applied over hair removed area once a day for 30 days; female C57BL/6 mice
From the text: C57BL/6 mice (female), 42˜49 days old, were used in this test.
First of all, mice were removed of hair on their backs using an electric shaver, and weighed. The mice were divided into several groups with weights equally distributed. […] The degree of hair growth was observed by naked eye and the back sides of the mice were photographed.

[1] = system: mononuclear cells treated with PHA; assay: Inhibition of cell division in PHA-stimulated mononuclear cells, 3H-thymidine uptake; format: cell-based; details: PHA 10 μg/ml, 3 days incubation, then 3H-thymidine 16 hours; IC50 values not given

## C/C=C/C[C@@H](C)[C@@H](O)[C@H]1C(=O)N[C@@H](CC)C(=O)N(C)CC(=O)N(C)[C@@H](CC(C)C)C(=O)N[C@@H](C(C)C)C(=O)N(C)[C@@H](CC(C)C)C(=O)N[C@@H](C)C(=S)N[C@H](C)C(=O)N(C)[C@@H](CC(C)C)C(=O)N(C)[C@@H](CC(C)C)C(=O)N(C)[C@@H](C(C)C)C(=O)N1C [cyclosporin A 7-thioamide] (cyclo([Abu][Sar][NMeL]V[NMeL][AlaΨ(CSNH)dAla][NMeL][NMeL][NMeV][MeBmt]))
C57BL/6 mice
  degree of hair growth observed by naked eye (hair regrowth effect): comparable to that of cyclosporin A
[1]
  immunosuppression activity (inhibition of cell division against stimulation by PHA): reduced immunosuppression activity compared to cyclosporin A
